Data as given in the supplement of paper PMC12823440, “Inhibitors supercharge kinase turnover through native proteolytic circuits” (Nature, 2025).
Where a name gives a salt, the structure may show the parent alone. The list shows a part of the results. The calls rarely recur for the same compound in another form.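 Kinases were expressed as nanoluciferase fusions in K562 cells and luminescence was read every 4 h between 2 and 18 h as percent of control, DMSO set to 100% and a positive control to 0%. A time point counts as decreased when the signal drops significantly (2 sigma). The hit call is the authors' own, does not follow from the count of time points alone, and its rule is not shown.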

Amino acid sequences for entries named in this document (tags omitted). A change or cut given only in a name is not applied to a line headed by its entry.
UniProt O75460: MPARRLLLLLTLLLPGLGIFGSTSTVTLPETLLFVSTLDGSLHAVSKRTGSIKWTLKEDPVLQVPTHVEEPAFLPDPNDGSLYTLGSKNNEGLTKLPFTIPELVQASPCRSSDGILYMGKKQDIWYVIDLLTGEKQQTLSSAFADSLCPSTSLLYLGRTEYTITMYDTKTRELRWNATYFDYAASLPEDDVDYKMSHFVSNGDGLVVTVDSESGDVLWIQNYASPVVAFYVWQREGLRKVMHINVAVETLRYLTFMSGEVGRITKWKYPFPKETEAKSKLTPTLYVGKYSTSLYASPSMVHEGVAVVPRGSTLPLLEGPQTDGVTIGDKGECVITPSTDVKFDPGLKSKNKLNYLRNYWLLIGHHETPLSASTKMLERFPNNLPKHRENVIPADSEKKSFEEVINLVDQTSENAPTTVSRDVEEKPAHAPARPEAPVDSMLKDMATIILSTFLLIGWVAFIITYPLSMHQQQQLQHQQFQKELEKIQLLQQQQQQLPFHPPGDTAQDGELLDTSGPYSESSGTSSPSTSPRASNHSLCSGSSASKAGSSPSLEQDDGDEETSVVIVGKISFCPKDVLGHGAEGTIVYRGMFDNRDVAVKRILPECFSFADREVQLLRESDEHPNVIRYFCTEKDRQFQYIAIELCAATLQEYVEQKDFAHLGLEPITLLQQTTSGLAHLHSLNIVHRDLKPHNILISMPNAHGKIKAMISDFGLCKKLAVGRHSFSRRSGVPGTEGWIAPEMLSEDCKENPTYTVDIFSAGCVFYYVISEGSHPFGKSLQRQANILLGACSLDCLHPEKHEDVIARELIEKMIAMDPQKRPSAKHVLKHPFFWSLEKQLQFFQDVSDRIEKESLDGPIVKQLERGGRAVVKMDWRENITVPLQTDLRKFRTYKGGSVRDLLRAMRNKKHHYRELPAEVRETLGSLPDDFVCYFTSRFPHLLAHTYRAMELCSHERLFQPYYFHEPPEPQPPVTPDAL

molecular target: ERN1 (UniProt O75460); test: kinase-Nluc reporter destabilization hit call (1 = scored as downregulated) (binary); higher = compound decreases kinase abundance; settings: K562; 2-18 h

kinase-Nluc reporter destabilization hit call, inactive:
O=c1cc(-c2ccc(O[C@@H]3O[C@H](CO)[C@@H](O)[C@H](O)[C@H]3O)cc2)oc2cc(O)c([C@@H]3O[C@H](CO)[C@@H](O)[C@H](O)[C@H]3O[C@@H]3OC[C@H](O)[C@H](O)[C@H]3O)c(O)c12 [Vaccarin] (10 µM) 0
O=CN1CCN(c2ccc(C=C3C(=O)Nc4ccccc43)cc2)CC1 (10 µM) 0
COc1ccc(Cl)cc1N(CC(=O)Nc1ccc2c(c1)OCO2)S(=O)(=O)c1ccccc1 (2.5 µM) 0
CCc1c(C(=O)NNC(=O)[C@H](O)c2cc(F)cc(F)c2)ccc(O)c1C (10 µM) 0
CN(C)CCn1cc2cc(NC(=O)c3cccc(C(F)(F)F)n3)c(C(C)(C)O)cc2n1 (10 µM) 0
CCC[C@H](C)Oc1nc(N)c2[nH]c(=O)n(CCCCCN3CCCCC3)c2n1 (10 µM) 0
CCOC(=O)c1c(C)[nH]c(C=C2C(=O)Nc3ccccc32)c1C (10 µM) 0
Cc1ccc(NC(=O)N2CCN(c3nc(N)nc4sc(-c5cccnc5)nc34)CC2)cc1 [PI4KIII beta inhibitor 3] (10 µM) 0
CS[C@@]1(C(=O)Nc2ccc3[nH]nc(-c4ccc(OC(C)C)nc4)c3c2)CCN(CC(=O)N2CC=C(c3ccc(-c4ncn(C)n4)cc3)CC2)C1 (2.5 µM) 0
O=C(Nc1ccc(Cl)cc1)C1CN(C(=O)c2cccc(-c3ccco3)c2)CC(F)(F)C1 (stereo not drawn) (2.5 µM) 0
Nc1ccc(Sc2nc3ccccc3s2)c(Cl)c1 [KRAS inhibitor-9] (10 µM) 0
Cn1c(N2CCO[C@@H](c3ccc(F)cc3)C2)nc(-c2ccncn2)cc1=O (10 µM) 0
COc1ccc(CN2CCC(c3ccc4nc(C(=O)N5CCN(Cc6ccc(C(F)(F)F)cc6)CC5)[nH]c4c3)CC2)cn1 (2.5 µM) 0
O=C(O)c1c[nH]c2cc(Cl)c(-c3ccc(C4(O)CCC4)cc3)cc12 (10 µM) 0
CC(C)(Oc1ccc(Cl)cc1)C(=O)Nc1ccc(OCc2ccc(C#N)cc2)cc1 [AMPK activator 4] (10 µM) 0
O=C(NCc1ccn[nH]1)c1cc([C@@H]2CCNC[C@H]2COc2ccc3c(c2)OCO3)ccc1F [GRK2-IN-1 (hydrochloride)] (10 µM) 0
Cc1cnc(Cl)nc1-c1ccc(N(Cc2ccc(CNC(=O)C(F)F)cc2)C(=O)c2ccc(O)cc2O)cc1 (10 µM) 0
CC1=C(C#N)C(c2ccc3[nH]nc(C)c3c2)C(C#N)=C(C)N1 (10 µM) 0
CN(C[C@@H]1COCCO1)S(=O)(=O)Nc1ccc2ccc3ncc(-c4cnn(C)c4)cc3c(=O)c2c1 (2.5 µM) 0
CC(=O)Nc1nc(C)c(-c2cc(C)c3c(c2)CN([C@@H](C)C2CC2)C3=O)s1 (10 µM) 0
O=C(Nc1ccccc1C(=O)NC1CCCCNC1=O)c1cc2ccccc2s1 (stereo not drawn) (10 µM) 0
CO[C@]1(C(=O)N[C@@H](C)c2ccc(-n3cc(F)cn3)nc2)CC[C@H](c2nc(C)cc(Nc3cc(C)[nH]n3)n2)CC1 [Pralsetinib] (10 µM) 0
O=[N+]([O-])c1ccc(-c2nc(-c3ccc(F)cc3)c(-c3ccncc3)[nH]2)cc1 (10 µM) 0
CC(ONC(=O)c1cc(C(F)(F)F)cc(C(F)(F)F)c1)C(=O)Nc1ccc(Cl)cc1 (stereo not drawn) (2.5 µM) 0
Cc1cncc2cccc(S(=O)(=O)N3CCCNC[C@@H]3C)c12 [H-1152 (dihydrochloride)] (10 µM) 0
Cc1nc(NC(=O)N2CCC[C@H]2C(N)=O)sc1-c1ccnc(C(C)(C)C(F)(F)F)c1 [Alpelisib] (2.5 µM) 0
CCCCNc1ncc2c(-c3ccc(F)cc3)nn(CC3CCC(N)CC3)c2n1 (stereo not drawn) (2.5 µM) 0
CS(=O)(=O)c1ccc([C@@H](CC2CCCC2)C(=O)Nc2nccs2)cc1 (10 µM) 0
CO/N=C1/C(c2c(O)[nH]c3cc(Cl)c(Cl)cc23)=Nc2ccccc21 (10 µM) 0
CNCc1ccccc1Sc1cccc2ccccc12 [IFN alpha-IFNAR-IN-1 (hydrochloride)] (10 µM) 0
C=CC(=O)N1CCC(c2ccc(C(N)=O)c(-c3ccc(Oc4ccccc4)cc3)n2)CC1 [Orelabrutinib] (2.5 µM) 0
Cc1cc2c(F)c(Oc3ncnn4cc(OC[C@@H](C)OC(=O)[C@H](C)N)c(C)c34)ccc2[nH]1 [Brivanib (alaninate)] (10 µM) 0
CCC(F)(F)c1cc(N2CCC(S(C)(=O)=O)CC2)nc2sc(C(N)=O)c(N)c12 (10 µM) 0
NC(=O)c1c(NC(=O)C2CC2)sc2c1CCCC2 (10 µM) 0
CC(C)=CCC[C@](C)(O[C@@H]1O[C@H](CO[C@@H]2O[C@H](CO)[C@@H](O)[C@H](O)[C@H]2O)[C@@H](O)[C@H](O)[C@H]1O)[C@H]1CC[C@]2(C)[C@@H]1[C@H](O)C[C@@H]1[C@@]3(C)CC[C@H](O[C@@H]4O[C@H](CO)[C@@H](O)[C@H](O)[C@H]4O[C@@H]4O[C@H](CO)[C@@H](O)[C@H](O)[C@H]4O)C(C)(C)[C@@H]3CC[C@]12C [Ginsenoside Rb1] (10 µM) 0
COc1cccc(-c2cc(=O)c3ccccc3o2)c1N (10 µM) 0
C[C@@H]1COC(Nc2ccc3ncnc(Nc4ccc(OCc5nccs5)c(Cl)c4)c3c2)=N1 [Varlitinib] (10 µM) 0
Cc1nc(Nc2cnn(C3CCNCC3)c2)nc2c1N(C)C(=O)c1cc3ccccc3cc1N2C (2.5 µM) 0

Some of these compounds in order of number of heavy atoms, low to high.
kinase-Nluc reporter destabilization hit call, inactive:
CNCc1ccccc1Sc1cccc2ccccc12 [IFN alpha-IFNAR-IN-1 (hydrochloride)] (10 µM) 0
CO[C@]1(C(=O)N[C@@H](C)c2ccc(-n3cc(F)cn3)nc2)CC[C@H](c2nc(C)cc(Nc3cc(C)[nH]n3)n2)CC1 [Pralsetinib] (10 µM) 0
CS[C@@]1(C(=O)Nc2ccc3[nH]nc(-c4ccc(OC(C)C)nc4)c3c2)CCN(CC(=O)N2CC=C(c3ccc(-c4ncn(C)n4)cc3)CC2)C1 (2.5 µM) 0
